From PubChem BioAssay AID2685 (National Center for Advancing Translational Sciences (NCATS), 2010)
The list shows a part of the results. Further columns of the screen follow, without active or inactive calls. Compounds called inactive in the main read-out are mostly missing here. Words in brackets tell the shape of the fitted curve; partial curves, single points and poor fits give uncertain potencies.

Assay: qHTS Assay for Lipid Storage Modulators in Drosophila S3 Cells;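 on cell number change: cells counted by Cell Tracker Red CMTPX staining in the red channel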
Details: BODIPY lipid droplet fluorescence, 18-24 h; for cell number change: measured here: cell count max response, cells fed with added oleic acid
Procedure, shortened: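 Drosophila S3 cells got compounds at several concentrations plus oleic acid (400 uM solution). Laser-scanning cytometry with 488 nm excitation read lipid droplets at 500-530 nm and cells at 575-640 nm. Percent activity was relative to 20 uM Triacsin C.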

[1] = measured here: lipid fluorescence (Fed channel) AC50, cells fed with added oleic acid
[2] = measured here: cell number channel AC50, cells fed with added oleic acid

Compound | cell number change | AC50 [1] | AC50 [2]
C/C(=N/NS(=O)(=O)c1ccccc1)c1ccc(NC(=O)C2CC2)cc1 | 3.95% | 0.259 µM [rising, partial curve, poor fit] | 
Cc1noc(C)c1C(=O)OCC(=O)Nc1cccc(S(N)(=O)=O)c1 | 158% |  | 
CN(C)S(=O)(=O)N1CCc2ccc(NC(=O)C3CCCO3)cc2C1 (stereo not given) | -4.7% |  | 
O=C(Nc1cccc(F)c1)N1CCN(C/C=C/c2ccccc2)CC1 |  | 0.82 µM [rising, single point] | 1.84 µM [rising, partial curve]
Cc1ccc(S(=O)(=O)N2[C@@H](c3ccccc3)C(C(=O)O)=CC[C@H]2c2ccc(Cl)c(Cl)c2)cc1 | -19% | 29.1 µM [rising, single point] | 
Cc1cccc(OCCCCCN2CCOCC2)c1 |  | 0.58 µM [falling, single point] | 0.58 µM [rising, single point]
O=C(O)c1cc(N/N=C/c2ccc(-c3ccc(F)cc3)o2)ccc1Cl | 16.2% | 0.231 µM [falling, full curve, poor fit] | 
Cc1nn(-c2ccccc2)c(N2CCCC2)c1/C=N/NC(=O)c1cc2ccccc2cc1O | 6.94% | 8.2 µM [rising, partial curve, poor fit] | 
O=C1CCCCc2sc(Br)c([N+](=O)[O-])c2N1 | -43.8% | 29.1 µM [falling, single point] | 18.4 µM [falling, single point]
CCCCOc1ccc(CNC(=S)N/N=C/c2ccc(OC)c(OC)c2)cc1 | 37.4% |  | 29.1 µM [rising, single point]
CCc1ccc(NC(=O)NNC(=O)CCc2ccccc2)cc1 | 1.98% |  | 
N#Cc1c2n(c3c(=O)n(Cc4ccc(Cl)cc4)cnc13)CCCCC2 | -10.5% |  | 
COc1ccccc1CNC(=O)N[C@@H](Cc1ccccc1)C(=O)O | 12.2% | 0.651 µM [falling, single point] | 
Cn1cc(CCC(=O)N2CCCC(C(=O)c3cccc4ccccc34)C2)cn1 (stereo not given) | -28.9% | 25.9 µM [falling, single point] | 
CCN(CC)CCCNc1oc(-c2ccccc2[N+](=O)[O-])nc1C#N | -33.5% | 20.6 µM [falling, single point] | 29.1 µM [falling, single point]
COc1ccccc1OCCSc1nc2ccccc2n1CC(N)=O | 47.2% |  | 16.4 µM [rising, partial curve, poor fit]
CCCNC(=O)NC(=O)CSc1nnc(-c2ccncc2)n1CC | 2.2% | 29.1 µM [rising, single point] | 
CCN1CC(CN(C)Cc2nc(Cc3ccccc3)no2)CC1=O (stereo not given) | 4.07% | 0.092 µM [falling, full curve, poor fit] | 
CCOc1ccc(NC(=O)CC2Nc3ccccc3NC2=O)cc1 (stereo not given) | 35.6% |  | 6.51 µM [rising, partial curve, poor fit]
O=C(Nc1ccccc1)c1nnsc1S(=O)c1ccc(Cl)cc1 (stereo not given) | -84.7% | 1.3 µM [falling, partial curve, poor fit] | 23.1 µM [falling, partial curve]

Compound | cell number change | AC50 [1] | AC50 [2]
CC(=O)c1c(-c2ccccc2)c2cc([N+](=O)[O-])ccc2[nH]c1=O | 24.3% |  | 
Clc1ccc2ncc(-c3nnnn3-c3ccccc3)c(-c3ccccc3)c2c1 | 2.38% | 4.61 µM [rising, partial curve] | 
CCOc1ccc2ncc(S(=O)(=O)c3ccccc3)c(N3CCC4(CC3)OCCO4)c2c1 | -36.7% |  | 32.6 µM [falling, single point]
CCCc1[nH]nc2c1C1(CCOC1C)C(C#N)=C(N)O2 (stereo not given) | -10.5% |  | 7.31 µM [falling, single point]
Cc1ccc(Cl)cc1NC(=O)CN1CCN(C(=O)C2CCCO2)CC1 (stereo not given) |  | 6.51 µM [rising, single point] | 2.06 µM [rising, partial curve]
O=c1cc(-c2ccc(O)cc2)oc2c1ccc1ccccc12 | -7.02% | 25.9 µM [falling, single point] | 
CCCC1C(=O)Nc2ccccc2N1C(=O)c1ccc(C(C)(C)C)cc1 (stereo not given) | -55.5% | 20.6 µM [falling, partial curve] | 18.4 µM [falling, single point]
C/C(=N\NC(=O)c1c[nH]c2ccccc12)c1ccc(C)o1 | 12.2% | 1.03 µM [rising, full curve] | 1.46 µM [rising, partial curve]
C/C(=N/NS(=O)(=O)c1ccc(Cl)cc1)c1cccc(NC(=O)c2ccc(Cl)cc2Cl)c1 | 12.6% | 16.4 µM [rising, partial curve, poor fit] | 
N#CCC(=O)N1CCN(C=O)CC1 | -33.2% | 4.61 µM [falling, full curve, poor fit] | 0.326 µM [falling, full curve, poor fit]
C=Cc1cccc(NC(=O)COc2ccccc2)c1 |  |  | 3.66 µM [rising, single point]
C=CCN(C(=O)c1csnn1)C(C(=O)NCc1ccc(F)cc1)c1sccc1C (stereo not given) | -23.8% |  | 
Cc1nnc(SCc2nc3ccccc3s2)n1N |  | 4.11 µM [rising, full curve] | 0.92 µM [rising, full curve]
CCOc1cc(C2C3=C(CC(C)(C)CC3=O)N(CCOC)C3=C2C(=O)CC(C)(C)C3)ccc1O | -2.55% |  | 
Cc1cccc(NC(=O)Cn2c(=O)n(Cc3ccccc3)c(=O)c3c(C)c(C)sc32)c1 | -7.67% | 32.6 µM [falling, single point] | 
Cc1nnc(SCc2ccc(Cl)cc2)nc1/C=C/N(C)C | 16.2% | 0.058 µM [rising, full curve, poor fit] | 0.00517 µM [rising, full curve, poor fit]
COc1cc(S(=O)(=O)NCCCN2CCOCC2)ccc1-n1cnnn1 | -40.7% | 18.4 µM [falling, single point] | 29.1 µM [falling, single point]
Cc1cc(C(C)(C)C)oc1C(=O)N(CC(=O)NC1CCCC1)Cc1ccc(F)cc1 |  | 5.8 µM [falling, single point] | 2.59 µM [falling, single point]
O=C(OCc1ccccc1)c1cn(-c2ccccc2)nc1-c1ccncc1 | -13.1% |  | 
O=C(COC(=O)c1ccccc1Br)NCc1ccccc1 |  | 14.6 µM [rising, partial curve, poor fit] | 

Sorted by number of heavy atoms (descending): twelve of the compounds above
Compound | cell number change | AC50 [1] | AC50 [2]
CCOc1ccc2ncc(S(=O)(=O)c3ccccc3)c(N3CCC4(CC3)OCCO4)c2c1 | -36.7% |  | 32.6 µM [falling, single point]
Cc1cccc(NC(=O)Cn2c(=O)n(Cc3ccccc3)c(=O)c3c(C)c(C)sc32)c1 | -7.67% | 32.6 µM [falling, single point] | 
Cc1cc(C(C)(C)C)oc1C(=O)N(CC(=O)NC1CCCC1)Cc1ccc(F)cc1 |  | 5.8 µM [falling, single point] | 2.59 µM [falling, single point]
C=CCN(C(=O)c1csnn1)C(C(=O)NCc1ccc(F)cc1)c1sccc1C (stereo not given) | -23.8% |  | 
Clc1ccc2ncc(-c3nnnn3-c3ccccc3)c(-c3ccccc3)c2c1 | 2.38% | 4.61 µM [rising, partial curve] | 
CCCC1C(=O)Nc2ccccc2N1C(=O)c1ccc(C(C)(C)C)cc1 (stereo not given) | -55.5% | 20.6 µM [falling, partial curve] | 18.4 µM [falling, single point]
Cc1ccc(Cl)cc1NC(=O)CN1CCN(C(=O)C2CCCO2)CC1 (stereo not given) |  | 6.51 µM [rising, single point] | 2.06 µM [rising, partial curve]
CC(=O)c1c(-c2ccccc2)c2cc([N+](=O)[O-])ccc2[nH]c1=O | 24.3% |  | 
C/C(=N\NC(=O)c1c[nH]c2ccccc12)c1ccc(C)o1 | 12.2% | 1.03 µM [rising, full curve] | 1.46 µM [rising, partial curve]
CCCc1[nH]nc2c1C1(CCOC1C)C(C#N)=C(N)O2 (stereo not given) | -10.5% |  | 7.31 µM [falling, single point]
C=Cc1cccc(NC(=O)COc2ccccc2)c1 |  |  | 3.66 µM [rising, single point]
N#CCC(=O)N1CCN(C=O)CC1 | -33.2% | 4.61 µM [falling, full curve, poor fit] | 0.326 µM [falling, full curve, poor fit]

Following part:

Compound | cell number change | AC50 [1] | AC50 [2]
CC(C(=O)N1CCCC1)c1ccc([N+](=O)[O-])cc1 (stereo not given) | 14.7% | 6.51 µM [falling, single point] | 
CC(=O)c1cccc(S(=O)(=O)NCC(c2ccco2)N2CCCCC2)c1 (stereo not given) | 33.1% | 0.517 µM [rising, full curve, poor fit] | 23.1 µM [rising, partial curve]
Cc1[nH]nc(N2CCCCC2)c1[N+](=O)[O-] | 9.95% | 6.51 µM [rising, single point] | 
COc1ccc(S(=O)(=O)N2CCN(C(=O)C3CCCCC3)CC2)cc1 | -1.32% | 1.26 µM [falling, partial curve] | 
O=C(CCCN1C(=O)/C(=C/c2ccccc2Cl)SC1=S)NNC(=O)c1cccnc1 | 11% | 29.1 µM [rising, single point] | 
O=C(CSc1nnc(CNC(=O)c2c(F)cccc2F)o1)NCc1ccccc1 | -40.8% | 12.6 µM [falling, partial curve] | 10 µM [falling, partial curve]
Cc1ccc(S(=O)(=O)N2CN(CC3CCCO3)c3nc4ccccc4nc32)c(C)c1 (stereo not given) | -8.85% |  | 
Oc1ccc(N=Cc2cc(Br)c(N3CCOCC3)o2)cc1 | 54.8% | 29.1 µM [rising, partial curve] | 23.1 µM [rising, single point]
COc1ccc(NC(=O)CSc2nnc(CNC(=O)COc3ccc(Cl)cc3)o2)cc1 | -13.7% | 0.82 µM [falling, full curve, poor fit] | 
CC1CCCC(C)N1CCNC(=O)CCn1nc(-c2ccccc2)ccc1=O (stereo not given) | 2.92% | 1.46 µM [falling, partial curve] | 1.03 µM [falling, full curve]
Cc1ccc(C)c(S(=O)(=O)N2CCN(C(=O)CCC(=O)c3cc(C)sc3C)CC2)c1 |  |  | 6.51 µM [rising, single point]
Cc1ccc(-c2nc(-c3ccccc3)no2)c(Cl)c1 | 6.73% | 20.6 µM [rising, single point] | 
COc1cc(C)c(CN2CCN(S(=O)(=O)c3ccc(Cl)s3)CC2)cc1OC |  | 7.31 µM [falling, single point] | 
COc1ccc2c(c1)[C@H]1[C@H](CO2)[C@H](c2ccccc2)[C@]2(C)C(=O)Nc3cc(OC)c(OC)cc3C(=O)N12 | -25.4% | 0.116 µM [falling, full curve, poor fit] | 
[N-]=[N+]=NC1c2ccccc2C(=O)N1Cc1ccccc1 (stereo not given) | -6.2% | 29.1 µM [rising, single point] | 
COc1ccc(CCNC(=O)NCCc2c[nH]c3ccccc23)cc1OC | -25.9% |  | 
Cc1ccc(-n2ncc3c(=O)[nH]c(SC(C)C)nc32)cc1 | -12.6% | 3.66 µM [falling, partial curve] | 4.11 µM [falling, partial curve]
COc1ccc(C(=O)NCC(=O)n2nc(C)cc2C)cc1OC | 12.7% | 0.103 µM [falling, full curve, poor fit] | 
